{"source": "the supplement of paper PMC11237882", "binders": {"B1": {"name": "unnamed (peptide)", "chain": "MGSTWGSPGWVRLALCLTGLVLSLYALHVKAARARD"}, "B2": {"name": "unnamed (peptide)", "chain": "SPSWYWDTVTKICVFLFAFVVPILIITVCYSLMLLR"}, "B3": {"name": "unnamed (peptide)", "chain": "SGKVVWITATMPYVVLTALLLRGVTLPGAIDGIRAY"}, "B4": {"name": "unnamed (peptide)", "chain": "SFLFSFYMASLFLGILAMAYEEEKQRVGEISKKIEP"}, "B5": {"name": "unnamed (peptide)", "chain": "CWLDFLIVNISLISLTAKILEYSEVAPIKALRPLRA"}, "B6": {"name": "unnamed (peptide)", "chain": "VAMVMDHILLGVFMLVCIIGTLAVFAGRLIELNQQG"}, "B7": {"name": "unnamed (peptide)", "chain": "WPTFQILMWSLSNSWVALKDLVLLLFTFIFFSAAFG"}, "B8": {"name": "unnamed (peptide)", "chain": "GPQKTAVAVLCTLLGLLSALENVAVLYLILSSHQLR"}, "B9": {"name": "unnamed (peptide)", "chain": "DEFQLLHRHRELFTLFIVLATFLLSLFCVTNGGIYV"}, "B10": {"name": "unnamed (peptide)", "chain": "IFVFVCVFGTIGMFLQPLFQNYTTTTFLHSDHSAPS"}}, "note": "The list shows a part of the results. Values are worked out from sequencing counts and are noisy.", "data": [{"molecular_target": "T1, Homer1 EVH1 domain", "T1 chain": "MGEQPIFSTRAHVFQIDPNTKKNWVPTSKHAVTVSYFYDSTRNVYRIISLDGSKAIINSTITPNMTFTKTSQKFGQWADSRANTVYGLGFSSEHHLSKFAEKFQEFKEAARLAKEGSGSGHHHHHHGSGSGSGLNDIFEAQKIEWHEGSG", "assay": "enrichment score (AUC of log2 frequency ratio across FACS sorting rounds) (log2 AUC); higher = stronger enrichment for Homer1 EVH1 binding", "values": [{"binder": "B1", "enrichment score": 0.577}, {"binder": "B2", "enrichment score": -1.5}, {"binder": "B3", "enrichment score": 0.779}, {"binder": "B4", "enrichment score": 2.84}, {"binder": "B5", "enrichment score": -0.993}, {"binder": "B6", "enrichment score": 1.68}, {"binder": "B7", "enrichment score": 0.34}, {"binder": "B8", "enrichment score": 3.07}, {"binder": "B9", "enrichment score": 2.83}, {"binder": "B10", "enrichment score": 2.68}]}]}
